Measurements from paper doi:10.1101/748145 (bioRxiv, 2019).
No constants are given. Whether binding was seen depends on the method and setting.

Target: LetB MCE2-MCE3 domains (residues 159-383) (E. coli) (UniProt P76272)
Assay: crystal structure

binding: no binding
B1: LetB MCE2-MCE3 domains (residues 159-383) (domain or fragment, UniProt P76272 159-383)
chain: GDLMIHLQAPDLGSLNSGSLVYFRKIPVGKVYDYAINPNKQGVVIDVLIERRFTDLVKKGSRFWNVSGVDANVSISGAKVKLESLAALVNGAIAFDSPEESKPAEAEDTFGLYEDLAHSQRGVIIKLELPSGAGLTADSTPLMYQGLEVGQLTKLDLNPGGKVTGEMTVDPSVVTLLRENTRIELRNPKLSLSDANLSALLTGKTFELVPGDGEPRKEFVVVPGE
